According to publication PMC10110421:

Assays:
[1] = biological target: HA-tagged or GFP-tagged WDR60 stably expressed in hTERT-RPE1 cells (human) (UniProt Q8WVS4); test: affinity purification with mass spectrometry; hTERT-RPE1 cells stably expressing HA- or GFP-tagged WDR60 or WDR34, treated with 1 mM DSP cross-linker on ice, lysed (Igepal buffers), precipitated with anti-HA agarose or GFP-Trap agarose at 4°C; nano-LC MS/MS
[2] = biological target: HA-tagged or GFP-tagged WDR34 stably expressed in hTERT-RPE1 cells (UniProt Q96EX3); test: as above

| Molecule | binding [1] | binding [2] |
| --- | --- | --- |
| IFT172 (endogenous, hTERT-RPE1) (from UniProt Q9UG01 1-1749) | binds |  |
| IFT54 (endogenous, hTERT-RPE1) (protein, UniProt Q8TDR0 1-691) MNAAVVRRTQEALGKVIRRPPLTEKLLSKPPFRYLHDIITEVIRMTGFMKGLYTDAEMKSDNVKDKDAKISFLQKAIDVVVMVSGEPLLAKPARIVAGHEPERTNELLQIIGKCCLNKLSSDDAVRRVLAGEKGEVKGRASLTSRSQELDNKNVREEESRVHKNTEDRGDAEIKERSTSRDRKQKEELKEDRKPREKDKDKEKAKENGGNRHREGERERAKARARPDNERQKDRGNRERDRDSERKKETERKSEGGKEKERLRDRDRERDRDKGKDRDRRRVKNGEHSWDLDREKNREHDKPEKKSASSGEMSKKLSDGTFKDSKAETETEISTRASKSLTTKTSKRRSKNSVEGRKEDNISAKSLDSIVSGINNEPNQETTTSEIGTKEANINSTSISDDNSASLRCENIQPNPTEKQKGDSTSDAEGDAGPAGQDKSEVPETPEIPNELSSNIRRIPRPGSARPAPPRVKRQDSMEALQMDRSGSGKTVSNVITESHNSDNEEDDQFVVEAAPQLSEMSEIEMVTAVELEEEEKHGGLVKKILETKKDYEKLQQSPKPGEKERSLFESAWKKEKDIVSKEIEKLRTSIQTLCKSALPLGKIMDYIQEDVDAMQNELQMWHSENRQHAEALQQEQRITDCAVEPLKAELAELEQLIKDQQDKICAVKANILKNEEKIQKMVYSINLTSRR | binds | binds |
| IFT88 (endogenous, hTERT-RPE1) (protein, UniProt Q13099 1-824) MMQNVHLAPETDEDDLYSGYNDYNPIYDIEELENDAAFQQAVRTSHGRRPPITAKISSTAVTRPIATGYGSKTSLASSIGRPMTGAIQDGVTRPMTAVRAAGFTKAALRGSAFDPLSQSRGPASPLEAKKKDSPEEKIKQLEKEVNELVEESCIANSCGDLKLALEKAKDAGRKERVLVRQREQVTTPENINLDLTYSVLFNLASQYSVNEMYAEALNTYQVIVKNKMFSNAGILKMNMGNIYLKQRNYSKAIKFYRMALDQVPSVNKQMRIKIMQNIGVTFIQAGQYSDAINSYEHIMSMAPNLKAGYNLTICYFAIGDREKMKKAFQKLITVPLEIDEDKYISPSDDPHTNLVTEAIKNDHLRQMERERKAMAEKYIMTSAKLIAPVIETSFAAGYDWCVEVVKASQYVELANDLEINKAVTYLRQKDYNQAVEILKVLEKKDSRVKSAAATNLSALYYMGKDFAQASSYADIAVNSDRYNPAALTNKGNTVFANGDYEKAAEFYKEALRNDSSCTEALYNIGLTYEKLNRLDEALDCFLKLHAILRNSAEVLYQIANIYELMENPSQAIEWLMQVVSVIPTDPQVLSKLGELYDREGDKSQAFQYYYESYRYFPCNIEVIEWLGAYYIDTQFWEKAIQYFERASLIQPTQVKWQLMVASCFRRSGNYQKALDTYKDTHRKFPENVECLRFLVRLCTDLGLKDAQEYARKLKRLEKMKEIREQRIKSGRDGSGGSRGKREGSASGDSGQNYSASSKGERLSARLRALPGTNEPYESSSNKEIDASYVDPLGPQIERPKTAAKKRIDEDDFADEELGDDLLPE | binds |  |
| IFT70A (endogenous, hTERT-RPE1) (protein, UniProt Q86WT1 1-665) MAGLSGAQIPDGEFTALVYRLIRDARYAEAVQLLGRELQRSPRSRAGLSLLGYCYYRLQEFALAAECYEQLGQLHPELEQYRLYQAQALYKACLYPEATRVAFLLLDNPAYHSRVLRLQAAIKYSEGDLPGSRSLVEQLLSGEGGEESGGDNETDGQVNLGCLLYKEGQYEAACSKFSATLQASGYQPDLSYNLALAYYSSRQYASALKHIAEIIERGIRQHPELGVGMTTEGFDVRSVGNTLVLHQTALVEAFNLKAAIEYQLRNYEVAQETLTDMPPRAEEELDPVTLHNQALMNMDARPTEGFEKLQFLLQQNPFPPETFGNLLLLYCKYEYFDLAADVLAENAHLTYKFLTPYLYDFLDALITCQTAPEEAFIKLDGLAGMLTEQLRRLTKQVQEARHNRDDEAIKKAVNEYDETMEKYIPVLMAQAKIYWNLENYPMVEKVFRKSVEFCNDHDVWKLNVAHVLFMQENKYKEAIGFYEPIVKKHYDNILNVSAIVLANLCVSYIMTSQNEEAEELMRKIEKEEEQLSYDDPNRKMYHLCIVNLVIGTLYCAKGNYEFGISRVIKSLEPYNKKLGTDTWYYAKRCFLSLLENMSKHMIVIHDSVIQECVQFLGHCELYGTNIPAVIEQPLEEERMHVGKNTVTDESRQLKALIYEIIGWNK | binds |  |

No constants are given. Whether binding was seen depends on the method and setting. Binding seen in cells or lysates may run through a third protein. Here binding means that the protein was enriched with, or labelled near, the bait; the list need not be complete.
